Paper PMC5992148, “Molecular principles underlying dual RNA specificity in the Drosophila SNF protein”
The exact form of at least one protein or probe is not confirmed. For some assays here: At least one verdict was read from the data and is not stated in words by the source. Where a protein sequence is shown, tags need not be part of it.

What was measured:
dSNF1-101 (RRM1) [1] = biological target: T1, dSNF1-101 (RRM1) (UniProt P43332); test: filter binding; details: without dU2A', RRM1 said to bind dU2SLIV 10 to 100-fold weaker than dU1SLII, depending on salt; filter binding: KCl varied, other conditions not stated; recombinant protein; residues 1-101; label: 32P internal (UTP, CTP) for filter binding; letters put together from the description
T1 sequence (looked up): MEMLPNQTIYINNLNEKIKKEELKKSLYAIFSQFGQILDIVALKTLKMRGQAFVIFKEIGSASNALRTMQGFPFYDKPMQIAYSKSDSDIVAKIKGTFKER

dSNF1-101 (RRM1) [2] = biological target: T1, dSNF1-101 (RRM1); test: NMR chemical shift perturbation; details: 300 uM protein, 1.1 mM RNA; NMR: 50 mM KCl, 20 mM sodium cacodylate pH 6.5, 2 mM EDTA, 23 C; recombinant protein; residues 1-101; label: 32P internal (UTP, CTP) for filter binding; letters put together from the description

Sequence: GGCCGGUAUUGCAGUACCGCCGGGUCC [dU2SLIV (T7, NMR and filter binding)]
- binding result (dSNF1-101 (RRM1) [1]): binds
- binding result (dSNF1-101 (RRM1) [2]): binds
